Earlier results in patent publication US6436649B1, “Method for detecting and/or quantifying a hapten in a homogeneous phase and device for implementation thereof” (priority 1996, dated 2002).

Amino acid sequences for entries named in this document (tags omitted). Residues count along the entry.
UniProt P05193, 21-381: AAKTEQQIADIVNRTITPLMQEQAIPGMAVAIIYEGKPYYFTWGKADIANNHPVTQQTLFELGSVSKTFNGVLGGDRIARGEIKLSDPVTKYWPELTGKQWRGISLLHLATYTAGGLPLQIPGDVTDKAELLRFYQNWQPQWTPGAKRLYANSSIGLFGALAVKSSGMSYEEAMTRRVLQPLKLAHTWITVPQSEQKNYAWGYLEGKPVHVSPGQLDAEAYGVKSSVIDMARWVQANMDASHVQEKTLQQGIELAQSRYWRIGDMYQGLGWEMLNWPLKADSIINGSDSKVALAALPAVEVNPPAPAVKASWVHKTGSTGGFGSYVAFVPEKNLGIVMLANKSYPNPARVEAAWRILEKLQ

Biological target: Citro.F. β-lactamase (Citrobacter freundii, UniProt P05193)
Details: enzyme Citro.F.; cited from earlier work

CC1=C(C(=O)O)N2C(=O)[C@@H](NC(=O)[C@H](N)c3ccccc3)[C@H]2SC1 [Cephalexin]
Km: 12 µM
kcat: 170 S^−1
